Measured values taken from patent US20020127268A1, “Anion regulator for ruminants” (AJINOMOTO CO., INC., priority 1997, published 2002).

How the values were obtained:
Assay type in all cases: in vivo
Holstein calves [1] = experiment: Palatability test No. 1 (free-choice intake of mixed feed); conditions: for Amount of intake (%): additive equivalent to −300 meq in 100 g concentrated feed, after 10 minutes of feeding; for Palatability compared with NH4Cl, MgSO4·7H2O and CaCl2·2H2O: Holstein calves, Table 1 summary
Holstein milk cows = experiment: Palatability test No. 2 (free-choice intake of mixed feed); conditions: for Amount of intake (%): additive equivalent to −600 meq in 200 g concentrated feed, ten minutes; for Palatability compared with NH4Cl, MgSO4·7H2O and CaCl2·2H2O: Holstein milk cows in dry period, Table 2 summary
Holstein calves [2] = experiment: Test on anion regulating activity (urinary pH); conditions: in words
Description: If a DCAD value is positive, the urinary pH is 7-8.5. It is also known that if an anion regulator is added, and as a result the feed is changed to show a negative DCAD value, the urinary pH of animals to which such feed has been fed is reduced and will show a value of 6.5-5.5 when the anion regulator has been added in an appropriate amount. […] (1995), Sep., p.634 (Japanese version).
Experiments were conducted using six(6) Holstein calves with a body weight of approximately 200 kg. They were divided into three groups, two calves in a group. The groups were each fed with one of the following three(3) types of experimental feeds. Feed consisting of […] concentrated feed (“Beef-fast”, ex Itochu Feed Co.), 550 g of timothy-hay and 550 g of alfalfa hay cubes was fed, twice a day, at 9 and 16 o'clock, for one week before the start of the experiment, for adaptation.
These three(3) types of mixed feeds were separately supplied to each group at 9 and 16 o'clock on the same day and at 9 o'clock on the next day. After 10 minutes, each mixed feed was removed, and subsequently, a mixture of 900 g of concentrated feed, 500 g of timothy-hay and 550 g of alfalfa hay cubes, was supplied instead.
In the table and figure, for example, terms Lys HCl 1 and Lys HCl 2 indicate respectively the two calves in the first group which was fed with Lys HCl (Lys HCl-feeded group).

Cl.N [NH4Cl, reference compound]
Amount of intake (%) (Holstein calves [1]; Calf 1): 38%
Amount of intake (%) (Holstein calves [1]; Calf 2): 11%
Amount of intake (%) (Holstein calves [1]; Calf 3): 43%
Amount of intake (%) (Holstein milk cows; Cow 4): 43%
Amount of intake (%) (Holstein milk cows; Cow 5): 47%
Amount of intake (%) (Holstein milk cows; Cow 6): 33%

O.O.[Ca+2].[Cl-].[Cl-] [CaCl2.2H2O, CaCl2·2H2O, reference compound]
Amount of intake (%) (Holstein calves [1]; Calf 1): 0%
Amount of intake (%) (Holstein calves [1]; Calf 2): 0%
Amount of intake (%) (Holstein calves [1]; Calf 3): −3%
Amount of intake (%) (Holstein milk cows; Cow 4): 27%
Amount of intake (%) (Holstein milk cows; Cow 5): −9%
Amount of intake (%) (Holstein milk cows; Cow 6): 0%

Cl.N=C(N)NCCC[C@H](N)C(=O)O [L-arginine hydrochloride, L-arginine monohydrochloride]
Amount of intake (%) (Holstein calves [1]; Calf 1): 44%
Amount of intake (%) (Holstein calves [1]; Calf 2): 17%
Amount of intake (%) (Holstein calves [1]; Calf 3): 63%
Palatability compared with NH4Cl, MgSO4·7H2O and CaCl2·2H2O (Holstein calves [1]): better palatabilities
Amount of intake (%) (Holstein milk cows; Cow 4): 73%
Amount of intake (%) (Holstein milk cows; Cow 5): 50%
Amount of intake (%) (Holstein milk cows; Cow 6): 35%
Palatability compared with NH4Cl, MgSO4·7H2O and CaCl2·2H2O (Holstein milk cows): better palatabilities
Intake of feed admixed with the compound (Holstein calves [2]): eaten well

Cl.NCCC[C@H](N)C(=O)O [L-ornithine hydrochloride, L-ornithine monohydrochloride]
Amount of intake (%) (Holstein calves [1]; Calf 1): 65%
Amount of intake (%) (Holstein calves [1]; Calf 2): 15%
Amount of intake (%) (Holstein calves [1]; Calf 3): 52%
Palatability compared with NH4Cl, MgSO4·7H2O and CaCl2·2H2O (Holstein calves [1]): better palatabilities
Amount of intake (%) (Holstein milk cows; Cow 4): 55%
Amount of intake (%) (Holstein milk cows; Cow 5): 70%
Amount of intake (%) (Holstein milk cows; Cow 6): 40%
Palatability compared with NH4Cl, MgSO4·7H2O and CaCl2·2H2O (Holstein milk cows): better palatabilities

Cl.NCCCC[C@H](N)C(=O)O [L-lysine hydrochloride, L-lysine monohydrochloride]
Amount of intake (%) (Holstein calves [1]; Calf 1): 40%
Amount of intake (%) (Holstein calves [1]; Calf 2): 15%
Amount of intake (%) (Holstein calves [1]; Calf 3): 80%
Palatability compared with NH4Cl, MgSO4·7H2O and CaCl2·2H2O (Holstein calves [1]): better palatabilities
Amount of intake (%) (Holstein milk cows; Cow 4): 89%
Amount of intake (%) (Holstein milk cows; Cow 5): 88%
Amount of intake (%) (Holstein milk cows; Cow 6): 73%
Palatability compared with NH4Cl, MgSO4·7H2O and CaCl2·2H2O (Holstein milk cows): better palatabilities
Intake of feed admixed with the compound (Holstein calves [2]): eaten well

O.O.O.O.O.O.O.O=S(=O)([O-])[O-].[Mg+2] [MgSO4.7H2O, MgSO4·7H2O, reference compound]
Amount of intake (%) (Holstein calves [1]; Calf 1): 35%
Amount of intake (%) (Holstein calves [1]; Calf 2): 14%
Amount of intake (%) (Holstein calves [1]; Calf 3): 50%
Amount of intake (%) (Holstein milk cows; Cow 4): 55%
Amount of intake (%) (Holstein milk cows; Cow 5): 15%
Amount of intake (%) (Holstein milk cows; Cow 6): 24%
